Measurements: US20250367225A1 (priority 2022, published 2025)
At least one compound was matched to its structure with a doubt left.

System: SARS-COV-2 (USA/WA1)
Test: Direct antiviral effect against SARS-COV-2 in Vero E6 cells (CPE)
Type: cell-based
Conditions: Vero E6, MOI 0.1, 70 h
Experimental: After 30 min, SARS-COV-2 (USA/WA1) was added to each well to final MOI 0.1. Cells were incubated at 37 °C/5% CO2 for 70 h prior to scoring CPE. Percent inhibition was calculated from fold reduction in CPE over control wells receiving no drug. Remdesivir (RDV) was used as a positive control for the assay. Phosphatidylethanolamine (PE) and Biotin-phosphatidylethanolamine (B-PE) were used as a negative control. […] C57BL/6 mice (N=10) were given 2 μg of 7DW8-5 or saline by IN route 2 days before intranasal challenge with 5,000 pfu (lethal dose) of the PR8 strain. Kaplan-Meier Survival curve was plotted.

For CCC(CC)COC(=O)[C@H](C)N[P@](=O)(OC[C@H]1O[C@@](C#N)(c2ccc3c(N)ncnn23)[C@H](O)[C@@H]1O)Oc1ccccc1 [Remdesivir, reference compound], the “direct antiviral activity against SARS-COV-2 in vitro” value was “exhibits activity”.
